Data as given in PubChem BioAssay AID1259308 (NCATS, 2017).
Purpose: 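Candidate targets for better recombinant protein yield in mammalian cells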 (primary screen). Cells: human HEK293 embryonic kidney cells stably expressing firefly luciferase (HEK-CMV-Luc2-Hygro). Reagents: single siRNA against human genes, 0.8 pmol siRNA per well. Duration: 72 h. Measurement: 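Luciferase light (ONE-Glo) measured on one replicate plate set and viability (CellTiter-Glo) on the other, scaled to a negative control siRNA, with robust z-scores and luciferase per cell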. Scale: total luciferase, z-score and total luciferase, % of control: higher = more reporter protein produced; luciferase per cell, z-score: higher = more reporter output per viable cell. Active means: 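An siRNA counts as active if its total luciferase robust z-score exceeds 3; genes with two or more such siRNAs out of three were retested with fresh siRNAs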. Meaning of the calls: active = raised luciferase; inactive = no rise.
Shown is one part, drawn at random, of about 59,000 deposited reagents. In the full data, about 1,510 (2.6%) are marked active. 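Calls use total luciferase alone and ignore viability, so some active siRNAs may act by altering cell number.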 Reagents against one gene are numbered here. Not all columns of the deposit are shown.

target gene,siRNA no.,"total luciferase, z-score","total luciferase, % of control","luciferase per cell, z-score",Outcome
MECOM,1,-1.63,49.5,-1.1,inactive
MECOM,2,1.88,119,1.39,inactive
MECOM,3,3.97,161,1.86,active
MECOM,4,0.442,90.7,0.389,inactive
MECOM,5,1.09,104,1.04,inactive
MECOM,6,-0.613,69.7,-0.825,inactive
SLURP1,1,0.258,87,0.618,inactive
SLURP1,2,-0.58,70.4,1.24,inactive
SLURP1,3,1.67,115,1.78,inactive
RAPGEF2,1,0.813,98.1,0.638,inactive
RAPGEF2,2,-2.08,40.6,-2.6,inactive
RAPGEF2,3,-0.303,75.9,1.8,inactive
SFRP4,1,2.01,122,1.3,inactive
SFRP4,2,0.509,92,1.46,inactive
SFRP4,3,1.18,105,1.32,inactive
ZSWIM6,1,3.24,146,2.34,active
ZSWIM6,2,1.38,109,1.32,inactive
ZSWIM6,3,0.376,89.4,-0.451,inactive
DHRS13,1,-0.0163,81.6,-0.0945,inactive
DHRS13,2,1.02,102,0.416,inactive
DHRS13,3,0.641,94.6,0.589,inactive
SOWAHB,1,1.92,120,1.42,inactive
SOWAHB,2,0.402,89.9,0.298,inactive
SOWAHB,3,1.09,104,0.935,inactive
ZNF66,1,2.24,126,1.58,inactive
ZNF66,2,-0.808,65.8,0.502,inactive
ZNF66,3,0.0386,82.7,-0.772,inactive
GPX7,1,0.174,85.3,0.75,inactive
GPX7,2,0.485,91.5,0.259,inactive
GPX7,3,-0.171,78.5,-0.389,inactive
B3GNT7,1,1.03,102,0.867,inactive
B3GNT7,2,-0.234,77.2,0.511,inactive
B3GNT7,3,-3.14,19.4,-4.62,inactive
LINC00921,1,1.64,115,2.17,inactive
LINC00921,2,-1.59,50.3,-1.17,inactive
LINC00921,3,-0.426,73.4,-0.897,inactive
APEH,1,0.992,102,0.54,inactive
APEH,2,-2.11,39.9,-1.61,inactive
APEH,3,-1.13,59.4,-1.83,inactive
